The subject of this experiment is SARS-CoV-2. Briefly: Antiviral assay in Calu-3 cells (spike staining). In kind it is cell-based. The following applies: Severe acute respiratory syndrome coronavirus 2, MOI 0.01, 48 h postinfection, read-out: Anti-SARS-CoV-2 activity IC50.

A value given as a limit tells only on which side of the number the result lay.

As a reminder, the IC50 is the concentration needed to halve the response being measured.

For `CC1=C[C@H](c2c(O)ccc([C@@H]3CC(=O)c4c(O)cc(O)cc4O3)c2O)[C@@H](C(=O)c2ccc(O)cc2O)[C@H](c2ccc(O)cc2O)C1` [Compound 16, kuwanon L], the half-inhibitory concentration (IC50) is > 20 µM.

The values are drawn from PMC9885530, “Identification of Natural Products Inhibiting SARS-CoV-2 by Targeting Viral Proteases: A Combined in Silico and in Vitro Approach” (Journal of Natural Products, 2023).
